Results are given in words; binding and its absence hold for the method and conditions named. Binding seen in cells or lysates may run through a third protein. Some results given as binding are weak or reduced against the parent protein; the word gives no strength.

Amino acid sequences for entries named in this document (tags omitted).
UniProt Q91Z31: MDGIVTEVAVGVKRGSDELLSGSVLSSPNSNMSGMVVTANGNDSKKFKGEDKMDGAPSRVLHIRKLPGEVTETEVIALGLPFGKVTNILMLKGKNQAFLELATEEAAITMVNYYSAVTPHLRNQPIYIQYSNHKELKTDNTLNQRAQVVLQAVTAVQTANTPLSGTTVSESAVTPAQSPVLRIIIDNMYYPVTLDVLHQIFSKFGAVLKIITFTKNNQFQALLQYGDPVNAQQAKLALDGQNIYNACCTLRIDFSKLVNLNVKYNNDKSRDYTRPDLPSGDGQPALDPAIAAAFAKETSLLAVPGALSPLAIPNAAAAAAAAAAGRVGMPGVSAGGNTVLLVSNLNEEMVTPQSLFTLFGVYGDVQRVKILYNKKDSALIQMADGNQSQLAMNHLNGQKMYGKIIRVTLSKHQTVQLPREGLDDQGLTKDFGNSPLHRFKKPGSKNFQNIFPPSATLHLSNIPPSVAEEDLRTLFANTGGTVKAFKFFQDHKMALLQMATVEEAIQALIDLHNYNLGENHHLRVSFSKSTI
UniProt P97801: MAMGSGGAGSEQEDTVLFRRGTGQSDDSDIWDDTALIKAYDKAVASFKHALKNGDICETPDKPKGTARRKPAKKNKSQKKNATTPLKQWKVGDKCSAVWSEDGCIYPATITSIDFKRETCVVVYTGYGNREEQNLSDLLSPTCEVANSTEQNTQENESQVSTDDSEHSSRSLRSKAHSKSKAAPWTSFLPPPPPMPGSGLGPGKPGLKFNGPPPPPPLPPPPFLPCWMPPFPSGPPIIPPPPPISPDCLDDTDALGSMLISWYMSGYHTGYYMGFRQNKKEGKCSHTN

The text below walks through data of paper PMC11377325.

For assay [1], the target named is Ptbp2 (mouse (endogenous in primary mouse motoneurons)) (UniProt Q91Z31). As to the kind of experiment: proximity ligation; Duolink in situ PLA on fixed, permeabilised primary mouse motoneurons at DIV 6 with antibodies against Ptbp2 and Smn; no signal when either antibody was omitted.
Assay [2] has the same target. As to the kind of experiment: co-IP; anti-Ptbp2 antibody on Protein G Dynabeads, lysate of primary mouse motoneurons (DIV 7; 10 mM HEPES pH 7.0, 100 mM KCl, 5 mM MgCl2, 0.5% NP-40), without or with RNase A pre-treatment, overnight at 4°C; Smn detected by immunoblot.

For the substance Smn (from UniProt P97801 1-288), the binding entry in assay [1] and in assay [2] was “binds” throughout.
